Measurements published in article PMC6549136.
These are yes or no findings as the source states them, for the method shown. Some entries that bind do so weakly or less than the wild type. Tags and fused reporters may be left off the sequences shown.

B1: Rpc34 (protein, UniProt P32910 1-317)
chain: MSGMIENGLQLSDNAKTLHSQMMSKGIGALFTQQELQKQMGIGSLTDLMSIVQELLDKNLIKLVKQNDELKFQGVLESEAQKKATMSAEEALVYSYIEASGREGIWSKTIKARTNLHQHVVLKCLKSLESQRYVKSVKSVKFPTRKIYMLYSLQPSVDITGGPWFTDGELDIEFINSLLTIVWRFISENTFPNGFKNFENGPKKNVFYAPNVKNYSTTQEILEFITAAQVANVELTPSNIRSLCEVLVYDDKLEKVTHDCYRVTLESILQMNQGEGEPEAGNKALEDEEEFSIFNYFKMFPASKHDKEVVYFDEWTI
B2: Rpc31, endogenous in hmt1Δ yeast cells (hypomethylated) (protein, UniProt P17890 1-251)
chain: MSSYRGGSRGGGSNYMSNLPFGLGYGDVGKNHITEFPSIPLPINGPITNKERSLAVKYINFGKTVKDGPFYTGSMSLIIDQQENSKSGKRKPNIILDEDDTNDGIERYSDKYLKKRKIGISIDDHPYNLNLFPNELYNVMGINKKKLLAISKFNNADDVFTGTGLQDENIGLSMLAKLKELAEDVDDASTGDGAAKGSKTGEGEDDDLADDDFEEDEDEEDDDDYNAEKYFNNGDDDDYGDEEDPNEEAAF

Target: T1, TAP-tagged Rpc82 (S. cerevisiae) (UniProt P32349)
T1 sequence: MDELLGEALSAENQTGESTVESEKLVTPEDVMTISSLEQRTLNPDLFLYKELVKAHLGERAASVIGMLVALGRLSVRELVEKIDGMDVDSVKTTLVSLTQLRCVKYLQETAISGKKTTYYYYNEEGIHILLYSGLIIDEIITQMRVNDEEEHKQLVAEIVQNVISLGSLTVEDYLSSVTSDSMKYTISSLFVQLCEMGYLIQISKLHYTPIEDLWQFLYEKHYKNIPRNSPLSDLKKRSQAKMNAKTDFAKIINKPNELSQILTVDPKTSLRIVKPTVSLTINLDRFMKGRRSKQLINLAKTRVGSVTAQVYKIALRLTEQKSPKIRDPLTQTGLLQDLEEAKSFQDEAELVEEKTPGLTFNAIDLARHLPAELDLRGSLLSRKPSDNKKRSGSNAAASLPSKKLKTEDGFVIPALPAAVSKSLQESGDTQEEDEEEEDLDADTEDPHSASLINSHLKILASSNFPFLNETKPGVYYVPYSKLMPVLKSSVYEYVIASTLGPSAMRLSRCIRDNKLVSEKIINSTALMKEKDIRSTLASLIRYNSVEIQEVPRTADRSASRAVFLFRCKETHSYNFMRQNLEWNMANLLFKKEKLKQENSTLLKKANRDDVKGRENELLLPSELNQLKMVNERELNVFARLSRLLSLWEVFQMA
Test: tandem-affinity purification; TAP-tagged Rpc82 purified from hmt1Δ cells; purified proteins resolved on 4–12% SDS–PAGE and silver stained

Binder	binding
B1	binds
B2	binds
